From the supplement of paper PMC4604168 (melanoma cell lines)
The list shows a part of the results. Single values are uncertain, as repeats are few or missing.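 Imaging used 1,536-well plates; nuclei positive for cleaved PARP by antibody were divided by total DNA-stained nuclei to yield the apoptosis fraction. Doses for screening kept most cells viable, and cell lines differ markedly in resting and induced cleaved-PARP levels.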

Tests used:
Test in all cases: cleaved PARP positive nuclei fraction relative to DMSO control; melanoma cells; higher = more apoptosis
Details in all cases: library dose: low library concentration; 72 h
[1] = test system: MZ2-MEL
[2] = test system: MeWo
[3] = test system: RPMI7951
[4] = test system: RVH-421
[5] = test system: SkMel28
[6] = test system: SkMel30
[7] = test system: SkMel5
[8] = test system: UACC257
[9] = test system: UACC62
[10] = test system: WM115
[11] = test system: WM1716
[12] = test system: WM1745
[13] = test system: WM3526
[14] = test system: WM3619
[15] = test system: WM451Lu

SMILES	cleaved PARP positive nuclei fraction [1] [%]	cleaved PARP positive nuclei fraction [2] [%]	cleaved PARP positive nuclei fraction [3] [%]	cleaved PARP positive nuclei fraction [4] [%]	cleaved PARP positive nuclei fraction [5] [%]	cleaved PARP positive nuclei fraction [6] [%]	cleaved PARP positive nuclei fraction [7] [%]	cleaved PARP positive nuclei fraction [8] [%]	cleaved PARP positive nuclei fraction [9] [%]	cleaved PARP positive nuclei fraction [10] [%]	cleaved PARP positive nuclei fraction [11] [%]	cleaved PARP positive nuclei fraction [12] [%]	cleaved PARP positive nuclei fraction [13] [%]	cleaved PARP positive nuclei fraction [14] [%]	cleaved PARP positive nuclei fraction [15] [%]
COc1ccc(-c2ccc3c(N4CCOCC4)nc(N4C[C@@H](C)O[C@@H](C)C4)nc3n2)cc1CO + O=S(=O)(c1ccccc1)N(CC(F)(F)F)c1ccc(C(O)(C(F)(F)F)C(F)(F)F)cc1 [T0901317] (first compound 0.02 µM, partner dose 1.4 µM)	67.3	29.8	213	249	163	140	94.8	217	63.3	57.4	82.8	131	164	104	141
CN(C)S(=O)(=O)c1ccc2c(c1)/C(=C/c1cc3c([nH]1)CCCC3)C(=O)N2 + COc1ccc2c(c1)CCC1C2CCC2(C)C(NCCCCCCN3C(=O)C=CC3=O)CCC12 [U73122] (first compound 0.4 µM, partner dose 0.4 µM)	206	59	132	126	49.7	169	39.1	74.2	88.6	100	185	126	66.9	81.6	97.5
Oc1cc(-c2nc(-c3ccccc3)[nH]c2-c2ccncc2)ccc1Cl + CCCCCCCCCCCC1=C(O)C(=O)C=C(O)C1=O [Embelin] (first compound 0.2 µM, partner dose 1.2 µM)	15.5	93.3	84.1	94	59.6	36.2	54.6	24.6	31	85.4	11.3	104	67.5	79.8	76.9
N#Cc1c(O)c2c(-c3ccc(-c4ccccc4O)cc3)csc2[nH]c1=O + CCCCCCCCCCCC1=C(O)C(=O)C=C(O)C1=O [Embelin] (first compound 2 µM, partner dose 1.2 µM)	182	32.4	70.8	85.9	99.2	16.2	38.2	41	98.2	36.5	29.6	111	123	53.2	72.4
O=C(O)c1ccc(-c2c[nH]c3ncc(-c4ccccc4)cc23)cc1C1CCCC1 + Oc1cc(-c2nc(-c3ccccc3)[nH]c2-c2ccncc2)ccc1Cl [L779450] (first compound 0.16 µM, partner dose 0.2 µM)	117	34.9	87.4	73.9	208	57.4	61.6	123	113	286	92.5	108	107	80.2	214
O=C(Nc1ccccc1)c1cc([N+](=O)[O-])ccc1Cl + O=C1NC(=O)/C(=C/c2ccc(-c3ccc(F)cc3O)o2)S1 [AS252424] (first compound 2 µM, partner dose 1 µM)	110	174	60.3	62	104	20	51.1	124	103	127	81.1	104	65.8	93.5	56
COc1ccc(-c2ccc3c(N4CCOCC4)nc(N4C[C@@H](C)O[C@@H](C)C4)nc3n2)cc1CO + Oc1cc(-c2nc(-c3ccccc3)[nH]c2-c2ccncc2)ccc1Cl [L779450] (first compound 0.02 µM, partner dose 0.2 µM)	135	53.8	36.5	67.3	166	41.7	80.9	222	84.3	237	194	103	85.8	112	86.8
CN(NC(=O)CC(=O)NN(C)C(=S)c1ccccc1)C(=S)c1ccccc1 + Oc1nc(-c2ccc(C(F)(F)F)cc2)nc2c1CSCC2 [XAV939] (first compound 0.006 µM, partner dose 2 µM)	71.6	112	384	104	118	22.9	167	179	69.4	87.8	90.9	128	78.6	97	148
CN(C)S(=O)(=O)c1ccc2c(c1)/C(=C/c1cc3c([nH]1)CCCC3)C(=O)N2 + O=S(=O)(c1ccccc1)N(CC(F)(F)F)c1ccc(C(O)(C(F)(F)F)C(F)(F)F)cc1 [T0901317] (first compound 0.4 µM, partner dose 1.4 µM)	117	200	66.6	160	16.9	184	16.2	47.1	40.7	29.4	38.4	138	41.6	85.9	36.7
O=C(O)c1ccc(-c2c[nH]c3ncc(-c4ccccc4)cc23)cc1C1CCCC1 + COc1cc2ncnc(Nc3ccc(Oc4ccccc4)cc3)c2cc1OC [SrcI1] (first compound 0.16 µM, partner dose 2 µM)	128	59.3	150	86.4	198	28.3	172	144	206	95.2	104	106	75.9	178	72.4

Part of the list above, showing only cleaved PARP positive nuclei fraction [8] [%] and cleaved PARP positive nuclei fraction [11] [%].
SMILES	cleaved PARP positive nuclei fraction [8] [%]	cleaved PARP positive nuclei fraction [11] [%]
O=C(Nc1ccccc1)c1cc([N+](=O)[O-])ccc1Cl + O=C1NC(=O)/C(=C/c2ccc(-c3ccc(F)cc3O)o2)S1 [AS252424] (first compound 2 µM, partner dose 1 µM)	124	81.1
COc1ccc(-c2ccc3c(N4CCOCC4)nc(N4C[C@@H](C)O[C@@H](C)C4)nc3n2)cc1CO + Oc1cc(-c2nc(-c3ccccc3)[nH]c2-c2ccncc2)ccc1Cl [L779450] (first compound 0.02 µM, partner dose 0.2 µM)	222	194
